No constants are given. Whether binding was seen depends on the method and setting. Some binding calls cover weakened binding; strength is not graded here.
Assays:
[1] = target: SDHAF4 (human (endogenous in HEK293T)) (UniProt Q5VUM1); assay: native gel or EMSA; complexome profiling: mitochondria of SILAC-labelled control HEK293T and UQCRC1^KO cells solubilised in 1% digitonin, 4 to 16% BN-PAGE, lane cut into 60 slices, quantitative MS; co-migration
[2] = target: T1, SDHAF2 (human (endogenous in HEK293T)) (UniProt Q9NX18); assay: as above
T1 sequence: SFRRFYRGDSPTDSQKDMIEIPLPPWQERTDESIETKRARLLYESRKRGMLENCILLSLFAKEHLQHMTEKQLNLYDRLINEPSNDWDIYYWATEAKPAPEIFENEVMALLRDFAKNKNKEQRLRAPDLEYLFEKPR

Chains of the proteins cited; added tags and fusions are not shown. Residues count along the entry.
UniProt Q5VUM1, residues 21-108: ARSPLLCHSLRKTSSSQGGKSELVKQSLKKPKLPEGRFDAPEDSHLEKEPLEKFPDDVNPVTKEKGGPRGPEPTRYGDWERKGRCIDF
UniProt P31040, residues 43-664: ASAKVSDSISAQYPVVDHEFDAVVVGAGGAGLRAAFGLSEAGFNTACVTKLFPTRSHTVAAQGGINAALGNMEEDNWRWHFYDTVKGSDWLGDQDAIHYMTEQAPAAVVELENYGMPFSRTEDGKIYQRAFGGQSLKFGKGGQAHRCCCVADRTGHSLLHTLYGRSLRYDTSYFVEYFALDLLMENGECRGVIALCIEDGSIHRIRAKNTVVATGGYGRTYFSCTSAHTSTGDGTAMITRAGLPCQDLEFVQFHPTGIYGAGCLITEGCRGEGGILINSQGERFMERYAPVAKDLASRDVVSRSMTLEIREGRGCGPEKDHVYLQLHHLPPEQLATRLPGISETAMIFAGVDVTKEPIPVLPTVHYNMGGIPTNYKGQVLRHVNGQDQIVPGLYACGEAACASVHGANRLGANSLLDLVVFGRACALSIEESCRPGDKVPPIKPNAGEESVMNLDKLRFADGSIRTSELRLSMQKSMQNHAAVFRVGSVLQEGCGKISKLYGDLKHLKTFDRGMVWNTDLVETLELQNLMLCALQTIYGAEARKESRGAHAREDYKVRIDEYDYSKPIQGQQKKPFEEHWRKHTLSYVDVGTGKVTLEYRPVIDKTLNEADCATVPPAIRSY

[3] = target: T1, SDHAF2 (human (endogenous in HEK293T)); assay: native gel or EMSA; BN-PAGE of isolated mitochondria solubilised in 1% digitonin, immunoblotting; HEK293T control and knockout lines, with or without antimycin A

Measured: binding

SDHA (from UniProt P31040 43-664)
binds: all assays above

From PMC12356253
